Values quoted from earlier work as cited in patent US20070129790A1, “Treatment of aneurysms with an implantable polymeric, biodegradable device incorporating a MMP inhibitor” (priority 2005, published 2007).
At least one structure is not confirmed: it was looked up by name or label, or the drawing left a doubt.

Tested on: aneurysms in animal models
Conditions: animal models (early AAA model; elastase-induced rat model of AAA), literature reports

## C[C@H]1c2cccc(O)c2C(=O)C2=C(O)[C@]3(O)C(=O)C(C(N)=O)=C(O)[C@@H](N(C)C)[C@@H]3[C@@H](O)[C@@H]21 [doxycycline]
  slowing the progression of aneurysms: effective at slowing the progression of aneurysms
